Among the data in PMC7677398 are binding values, retold here.

The experiment deals with T1, Bcl-2 (mouse (endogenous in cultured mouse GECs)), P10417.
T1 chain: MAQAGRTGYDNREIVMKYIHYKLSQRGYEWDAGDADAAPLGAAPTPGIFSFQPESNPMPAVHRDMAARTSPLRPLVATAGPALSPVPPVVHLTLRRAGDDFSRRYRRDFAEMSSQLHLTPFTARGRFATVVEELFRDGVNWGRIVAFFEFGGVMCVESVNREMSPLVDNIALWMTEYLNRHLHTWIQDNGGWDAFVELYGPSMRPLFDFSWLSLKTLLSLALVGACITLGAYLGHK
Briefly: co-IP; endogenous proteins; precleared GEC lysates incubated with anti-Bcl-2 antibody overnight at 4 °C, protein A-agarose 2 h at 4 °C, normal rabbit IgG as control; cells untreated or treated with tunicamycin (TM). Conditions: remark: other sources report otherwise.

Results are given in words; binding and its absence hold for the method and conditions named. In cells and extracts the contact can be indirect. Some entries that bind do so weakly or less than the wild type.

B1: Beclin-1, O88597 1-448 (protein)
chain: MEGSKASSSTMQVSFVCQRCSQPLKLDTSFKILDRVTIQELTAPLLTTAQAKPGETQEEEANSGEEPFIETRQDGVSRRFIPPARMMSTESANSFTLIGEASDGGTMENLSRRLKVTGDLFDIMSGQTDVDHPLCEECTDTLLDQLDTQLNVTENECQNYKRCLEILEQMNEDDSEQLQRELKELALEEERLIQELEDVEKNRKVVAENLEKVQAEAERLDQEEAQYQREYSEFKRQQLELDDELKSVENQVRYAQIQLDKLKKTNVFNATFHIWHSGQFGTINNFRLGRLPSVPVEWNEINAAWGQTVLLLHALANKMGLKFQRYRLVPYGNHSYLESLTDKSKELPLYCSGGLRFFWDNKFDHAMVAFLDCVQQFKEEVEKGETRFCLPYRMDVEKGKIEDTGGSGGSYSIKTQFNSEEQWTKALKFMLTNLKWGLAWVSSQFYNK
Turning to B1, the binding result is listed as “binds”.
